Measurements as given in publication PMC7000777.

Chains of the proteins cited; added tags and fusions are not shown.
UniProt P06239: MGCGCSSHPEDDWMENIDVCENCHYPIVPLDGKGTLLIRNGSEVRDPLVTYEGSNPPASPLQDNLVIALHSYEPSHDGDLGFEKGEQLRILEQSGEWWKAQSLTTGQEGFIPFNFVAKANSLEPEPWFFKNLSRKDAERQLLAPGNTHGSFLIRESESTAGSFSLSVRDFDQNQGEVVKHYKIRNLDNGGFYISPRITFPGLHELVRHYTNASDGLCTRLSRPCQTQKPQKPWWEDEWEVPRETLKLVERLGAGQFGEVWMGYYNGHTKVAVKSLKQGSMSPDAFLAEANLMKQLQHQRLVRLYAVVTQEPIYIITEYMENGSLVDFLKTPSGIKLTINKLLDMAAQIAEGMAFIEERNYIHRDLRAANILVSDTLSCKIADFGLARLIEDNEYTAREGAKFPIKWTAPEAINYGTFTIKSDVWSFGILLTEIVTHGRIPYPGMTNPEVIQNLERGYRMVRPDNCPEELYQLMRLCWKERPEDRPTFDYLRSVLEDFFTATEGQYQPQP

Biological target: T1, BirA*-fused ICOS (mouse) (UniProt Q9WVS0)
T1 sequence: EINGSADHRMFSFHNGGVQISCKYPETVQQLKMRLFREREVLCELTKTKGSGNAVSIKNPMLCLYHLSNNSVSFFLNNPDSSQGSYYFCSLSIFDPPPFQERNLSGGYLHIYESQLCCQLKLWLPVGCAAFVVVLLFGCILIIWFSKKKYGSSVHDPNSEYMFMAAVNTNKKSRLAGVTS
Assay: proximity labelling; BioID: Jurkat cells with BirA*-fused ICOS or ICOS-CD44TM, 50 μM biotin for 24 h; RIPA lysis; streptavidin Dynabeads; blotted for p85, Lck and Fyn

binding	Substance
binds	regulatory subunit p85 of phosphoinositide-3 kinase (PI3K) (human (endogenous in Jurkat))
binds weakly	tyrosine kinase Lck (endogenous) (from UniProt P06239 1-509) (enzyme)

These are yes or no findings as the source states them, for the method shown. Binding seen in cells or lysates may run through a third protein. Here binding means that the protein was enriched with, or labelled near, the bait; the list need not be complete. Sequences can lack the tags named with a protein.
